Literature values, collected in EP0673649A1, “Pharmaceutical compositions for the prolonged release of trimetazidine after oral administration” (ADIR ET COMPAGNIE, priority 1994, dated 1995).
At least one read-out could not be matched to a standard name with certainty.

Conditions: room temperature; cited from earlier work

## CCCCOC(=O)c1ccccc1C(=O)OCCCC [Dibutylphtalate]
  Solubilité dans l'eau à température ambiante: 0.04%
